Where a chain is given by its changes, count along the chain named. No constants are given. Whether binding was seen depends on the method and setting. In cells and extracts the contact can be indirect. Some binding calls cover weakened binding; strength is not graded here. For part of these data: Tags and fused reporters may be left off the sequences shown.
Assays:
[1] = molecular target: T1, USP37 S114A (phosphorylation-resistant mutant) (UniProt Q86T82); test: co-IP; HEK293T cells transfected with the indicated plasmids (USP37 WT or S114A); untreated or cisplatin (3 umol/l, 16 h) and MG132 for 4 h; co-IP and western blots
T1 sequence: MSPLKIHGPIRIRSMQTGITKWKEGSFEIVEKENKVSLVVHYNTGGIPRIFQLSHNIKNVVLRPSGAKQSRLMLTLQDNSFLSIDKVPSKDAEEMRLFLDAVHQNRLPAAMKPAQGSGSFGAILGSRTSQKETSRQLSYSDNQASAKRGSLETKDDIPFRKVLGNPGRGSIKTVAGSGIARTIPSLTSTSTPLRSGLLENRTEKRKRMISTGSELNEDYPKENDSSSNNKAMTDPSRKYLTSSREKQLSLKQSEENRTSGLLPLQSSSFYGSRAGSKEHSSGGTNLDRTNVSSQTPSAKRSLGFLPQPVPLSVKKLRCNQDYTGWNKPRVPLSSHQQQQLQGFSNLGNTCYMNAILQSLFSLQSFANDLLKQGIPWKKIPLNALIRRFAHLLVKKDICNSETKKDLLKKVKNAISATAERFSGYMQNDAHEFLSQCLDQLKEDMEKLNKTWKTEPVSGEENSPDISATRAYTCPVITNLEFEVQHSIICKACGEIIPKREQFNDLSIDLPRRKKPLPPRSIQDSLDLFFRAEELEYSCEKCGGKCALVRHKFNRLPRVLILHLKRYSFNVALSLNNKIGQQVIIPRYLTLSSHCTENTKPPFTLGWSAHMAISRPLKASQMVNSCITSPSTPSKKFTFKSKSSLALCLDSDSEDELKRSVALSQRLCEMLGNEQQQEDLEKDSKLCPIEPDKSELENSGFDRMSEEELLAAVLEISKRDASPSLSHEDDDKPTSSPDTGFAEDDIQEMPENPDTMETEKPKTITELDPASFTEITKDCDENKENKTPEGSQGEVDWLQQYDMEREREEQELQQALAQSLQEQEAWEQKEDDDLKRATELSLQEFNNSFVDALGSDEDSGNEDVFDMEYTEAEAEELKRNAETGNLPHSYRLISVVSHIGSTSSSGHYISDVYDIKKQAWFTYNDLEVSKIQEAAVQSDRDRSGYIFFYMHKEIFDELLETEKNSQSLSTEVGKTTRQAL

Amino acid sequences for entries named in this document (tags omitted).
UniProt P54132: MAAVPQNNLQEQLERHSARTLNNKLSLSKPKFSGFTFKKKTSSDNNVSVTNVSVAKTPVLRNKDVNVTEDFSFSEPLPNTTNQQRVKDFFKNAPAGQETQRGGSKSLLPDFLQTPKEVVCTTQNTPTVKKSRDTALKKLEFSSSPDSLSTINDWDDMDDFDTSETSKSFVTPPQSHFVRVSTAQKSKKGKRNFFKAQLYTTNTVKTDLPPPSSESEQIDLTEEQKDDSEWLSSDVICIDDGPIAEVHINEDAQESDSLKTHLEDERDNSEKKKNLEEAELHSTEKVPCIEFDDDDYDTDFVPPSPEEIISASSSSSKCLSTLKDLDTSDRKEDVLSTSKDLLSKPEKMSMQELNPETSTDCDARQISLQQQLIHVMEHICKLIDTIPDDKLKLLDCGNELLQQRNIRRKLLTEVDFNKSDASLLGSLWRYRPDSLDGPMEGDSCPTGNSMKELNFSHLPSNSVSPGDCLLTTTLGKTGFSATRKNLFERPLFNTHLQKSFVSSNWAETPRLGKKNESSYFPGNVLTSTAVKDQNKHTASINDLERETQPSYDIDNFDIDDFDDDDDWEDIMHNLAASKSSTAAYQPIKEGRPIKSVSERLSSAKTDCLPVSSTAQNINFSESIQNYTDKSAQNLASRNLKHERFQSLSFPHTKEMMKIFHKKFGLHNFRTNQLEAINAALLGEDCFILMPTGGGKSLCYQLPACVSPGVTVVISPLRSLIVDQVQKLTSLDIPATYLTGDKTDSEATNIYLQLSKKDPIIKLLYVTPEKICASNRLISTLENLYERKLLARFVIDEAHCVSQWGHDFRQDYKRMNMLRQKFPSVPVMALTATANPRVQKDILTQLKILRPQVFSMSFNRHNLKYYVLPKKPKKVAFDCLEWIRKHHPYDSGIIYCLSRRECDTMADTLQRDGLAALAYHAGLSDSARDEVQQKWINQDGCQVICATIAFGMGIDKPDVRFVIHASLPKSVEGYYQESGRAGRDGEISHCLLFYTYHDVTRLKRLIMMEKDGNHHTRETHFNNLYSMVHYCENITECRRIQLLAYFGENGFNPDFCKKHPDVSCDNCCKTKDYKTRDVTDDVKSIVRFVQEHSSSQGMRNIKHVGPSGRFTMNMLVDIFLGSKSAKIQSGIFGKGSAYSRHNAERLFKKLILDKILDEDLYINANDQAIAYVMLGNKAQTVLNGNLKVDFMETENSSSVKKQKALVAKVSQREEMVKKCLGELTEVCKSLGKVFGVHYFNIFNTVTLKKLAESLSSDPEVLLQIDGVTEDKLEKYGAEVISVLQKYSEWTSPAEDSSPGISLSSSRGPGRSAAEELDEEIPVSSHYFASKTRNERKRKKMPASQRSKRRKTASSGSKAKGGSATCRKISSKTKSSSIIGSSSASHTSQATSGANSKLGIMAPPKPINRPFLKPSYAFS

[2] = molecular target: T2, USP37 wild type, as transfected in the co-IP of Figure 5E (UniProt Q86T82); test: as above
T2 sequence: T1 sequence with A114S

[3] = molecular target: T3, HA-tagged USP37 (ubiquitin specific peptidase 37), wild type (UniProt Q86T82); test: co-IP; HEK293T cells expressing HA-tagged USP37 or other HA-tagged deubiquitinases (transfected, Figure 1A; stably expressing, Figure 4D); 10 uM MG132 for 4 h; in Figure 4D with or without cisplatin (3 umol/l, 16 h); IP with HA antibody-conjugated beads, blot for endogenous BLM
T3 sequence: T1 sequence with A114S

Measured: binding

BLM (RecQ helicase BLM), endogenous (from UniProt P54132 1-1417)
binds: all assays above
